Results as given in US20200340060A1, “COMPOSITIONS AND METHODS FOR IDENTIFYING AND TREATING LIVER DISEASES AND MONITORING TREATMENT OUTCOMES” (Gilead Sciences, Inc., priority 2017, published 2020).

Assay: SOMAscan serum proteomics in NASH subjects treated with selonsertib/simtuzumab, baseline and week 24
Set-up: species or system human
Details: serum protein marker level, week 24 vs baseline; for Median percent CHG at W24 in improver: CRN fibrosis stage improvers; for Median percent CHG at W24 in Non-improver: CRN fibrosis stage non-improvers

Molecule	Median percent CHG at W24 in improver [%]	Median percent CHG at W24 in Non-improver [%]
Troponin I, skeletal, fast twitch (protein, UniProt P48788 2-182, looked up) Troponin I, fast skeletal …: GDEEKRNRAITARRQHLKSVMLQIAATELEKEESRREAEKQNYLAEHCPPLHIPGSMSEVQELCKQLHAKIDAAEEEKYDMEVRVQKTSKELEDMNQKLFDLRGKFKRPPLRRVRMSADAMLKALLGSKHKVCMDLRANLKQVKKEDTEKERDLRDVGDWRKNIEEKSGMEGRKKMFESES	−1.77	6.48
Dtk (protein, UniProt Q06418 41-890, looked up) Tyrosine-protein kinase …: AGLKLMGAPVKLTVSQGQPVKLNCSVEGMEEPDIQWVKDGAVVQNLDQLYIPVSEQHWIGFLSLKSVERSDAGRYWCQVEDGGETEISQPVWLTVEGVPFFTVEPKDLAVPPNAPFQLSCEAVGPPEPVTIVWWRGTTKIGGPAPSPSVLNVTGVTQSTMFSCEAHNLKGLASSRTATVHLQALPAAPFNITVTKLSSSNASVAWMPGADGRALLQSCTVQVTQAPGGWEVLAVVVPVPPFTCLLRDLVPATNYSLRVRCANALGPSPYADWVPFQTKGLAPASAPQNLHAIRTDSGLILEWEEVIPEAPLEGPLGPYKLSWVQDNGTQDELTVEGTRANLTGWDPQKDLIVRVCVSNAVGCGPWSQPLVVSSHDRAGQQGPPHSRTSWVPVVLGVLTALVTAAALALILLRKRRKETRFGQAFDSVMARGEPAVHFRAARSFNRERPERIEATLDSLGISDELKEKLEDVLIPEQQFTLGRMLGKGEFGSVREAQLKQEDGSFVKVAVKMLKADIIASSDIEEFLREAACMKEFDHPHVAKLVGVSLRSRAKGRLPIPMVILPFMKHGDLHAFLLASRIGENPFNLPLQTLIRFMVDIACGMEYLSSRNFIHRDLAARNCMLAEDMTVCVADFGLSRKIYSGDYYRQGCASKLPVKWLALESLADNLYTVQSDVWAFGVTMWEIMTRGQTPYAGIENAEIYNYLIGGNRLKQPPECMEDVYDLMYQCWSADPKQRPSFTCLRMELENILGQLSVLSASQDPLYINIERAEEPTAGGSLELPGRDQPYSGAGDGSGMGAVGGTPSDCRYILTPGGLAEQPGQAEHQPESPLNETQRLLLLQQGLLPHSSC	−1.06	2.32
LY9 (protein, UniProt Q9HBG7 48-655, looked up) T-lymphocyte surface antigen …: KDSAPTVVSGILGGSVTLPLNISVDTEIENVIWIGPKNALAFARPKENVTIMVKSYLGRLDITKWSYSLCISNLTLNDAGSYKAQINQRNFEVTTEEEFTLFVYEQLQEPQVTMKSVKVSENFSCNITLMCSVKGAEKSVLYSWTPREPHASESNGGSILTVSRTPCDPDLPYICTAQNPVSQRSSLPVHVGQFCTDPGASRGGTTGETVVGVLGEPVTLPLALPACRDTEKVVWLFNTSIISKEREEAATADPLIKSRDPYKNRVWVSSQDCSLKISQLKIEDAGPYHAYVCSEASSVTSMTHVTLLIYRRLRKPKITWSLRHSEDGICRISLTCSVEDGGNTVMYTWTPLQKEAVVSQGESHLNVSWRSSENHPNLTCTASNPVSRSSHQFLSENICSGPERNTKLWIGLFLMVCLLCVGIFSWCIWKRKGRCSVPAFCSSQAEAPADTPEPTAGHTLYSVLSQGYEKLDTPLRPARQQPTPTSDSSSDSNLTTEEDEDRPEVHKPISGRYEVFDQVTQEGAGHDPAPEGQADYDPVTPYVTEVESVVGENTMYAQVFNLQGKTPVSQKEESSATIYCSIRKPQVVPPPQQNDLEIPESPTYENFT	−6.33	3.6
MK13 (protein, UniProt O15264 1-365, looked up) Mitogen-activated protein …: MSLIRKKGFYKQDVNKTAWELPKTYVSPTHVGSGAYGSVCSAIDKRSGEKVAIKKLSRPFQSEIFAKRAYRELLLLKHMQHENVIGLLDVFTPASSLRNFYDFYLVMPFMQTDLQKIMGMEFSEEKIQYLVYQMLKGLKYIHSAGVVHRDLKPGNLAVNEDCELKILDFGLARHADAEMTGYVVTRWYRAPEVILSWMHYNQTVDIWSVGCIMAEMLTGKTLFKGKDYLDQLTQILKVTGVPGTEFVQKLNDKAAKSYIQSLPQTPRKDFTQLFPRASPQAADLLEKMLELDVDKRLTAAQALTHPFFEPFRDPEEETEAQQPFDDSLEHEKLTVDEWKQHIYKEIVNFSPIARKDSRRRSGMKL	0.54	−4.33
KI3L2 (protein, UniProt P43630 22-455, looked up) Killer cell …: LMGGQDKPFLSARPSTVVPRGGHVALQCHYRRGFNNFMLYKEDRSHVPIFHGRIFQESFIMGPVTPAHAGTYRCRGSRPHSLTGWSAPSNPLVIMVTGNHRKPSLLAHPGPLLKSGETVILQCWSDVMFEHFFLHREGISEDPSRLVGQIHDGVSKANFSIGPLMPVLAGTYRCYGSVPHSPYQLSAPSDPLDIVITGLYEKPSLSAQPGPTVQAGENVTLSCSSWSSYDIYHLSREGEAHERRLRAVPKVNRTFQADFPLGPATHGGTYRCFGSFRALPCVWSNSSDPLLVSVTGNPSSSWPSPTEPSSKSGICRHLHVLIGTSVVIFLFILLLFFLLYRWCSNKKNAAVMDQEPAGDRTVNRQDSDEQDPQEVTYAQLDHCVFIQRKISRPSQRPKTPLTDTSVYTELPNAEPRSKVVSCPRAPQSGLEGVF	1.92	−1.21
PCI (protein, UniProt P05154 26-406, looked up) Plasma serine protease …: EMKKRVEDLHVGATVAPSSRRDFTFDLYRALASAAPSQSIFFSPVSISMSLAMLSLGAGSSTKMQILEGLGLNLQKSSEKELHRGFQQLLQELNQPRDGFQLSLGNALFTDLVVDLQDTFVSAMKTLYLADTFPTNFRDSAGAMKQINDYVAKQTKGKIVDLLKNLDSNAVVIMVNYIFFKAKWETSFNHKGTQEQDFYVTSETVVRVPMMSREDQYHYLLDRNLSCRVVGVPYQGNATALFILPSEGKMQQVENGLSEKTLRKWLKMFKKRQLELYLPKFSIEGSYQLEKVLPSLGISNVFTSHADLSGISNHSNIQVSEMVHKAVVEVDESGTRAAAATGTIFTFRSARLNSQRLVFNRPFLMFIVDNNILFLGKVNRP	1.79	12.19
INGR2 (protein, UniProt P38484 22-337, looked up) Interferon gamma receptor 2: APPDPLSQLPAPQHPKIRLYNAEQVLSWEPVALSNSTRPVVYQVQFKYTDSKWFTADIMSIGVNCTQITATECDFTAASPSAGFPMDFNVTLRLRAELGALHSAWVTMPWFQHYRNVTVGPPENIEVTPGEGSLIIRFSSPFDIADTSTAFFCYYVHYWEKGGIQQVKGPFRSNSISLDNLKPSRVYCLQVQAQLLWNKSNIFRVGHLSNISCYETMADASTELQQVILISVGTFSLLSVLAGACFFLVLKYRGLIKYWFHTPPSIPLQIEEYLKDPTQPILEALDKDSSPKDDVWDSVSIISFPEKEQEDVLQTL	2.76	−1
17-beta-HSD 1 (protein, UniProt P14061 2-328, looked up) 17-beta-hydroxysteroid …: ARTVVLITGCSSGIGLHLAVRLASDPSQSFKVYATLRDLKTQGRLWEAARALACPPGSLETLQLDVRDSKSVAAARERVTEGRVDVLVCNAGLGLLGPLEALGEDAVASVLDVNVVGTVRMLQAFLPDMKRRGSGRVLVTGSVGGLMGLPFNDVYCASKFALEGLCESLAVLLLPFGVHLSLIECGPVHTAFMEKVLGSPEEVLDRTDIHTFHRFYQYLAHSKQVFREAAQNPEEVAEVFLTALRAPKPTLRYFTTERFLPLLRMRLDDPSGSNYVTAMHREVFGDVPAKAEAGAEAGGGAGPGAEDEAGRGAVGDPELGDPPAAPQ	2.16	−4.14
MP2K3 (protein, UniProt P46734 1-347, looked up) Dual specificity …: MESPASSQPASMPQSKGKSKRKKDLRISCMSKPPAPNPTPPRNLDSRTFITIGDRNFEVEADDLVTISELGRGAYGVVEKVRHAQSGTIMAVKRIRATVNSQEQKRLLMDLDINMRTVDCFYTVTFYGALFREGDVWICMELMDTSLDKFYRKVLDKNMTIPEDILGEIAVSIVRALEHLHSKLSVIHRDVKPSNVLINKEGHVKMCDFGISGYLVDSVAKTMDAGCKPYMAPERINPELNQKGYNVKSDVWSLGITMIEMAILRFPYESWGTPFQQLKQVVEEPSPQLPADRFSPEFVDFTAQCLRKNPAERMSYLELMEHPFFTLHKTKKTDIAAFVKEILGEDS	−0.97	−3.46
CD70 (protein, UniProt P32970 1-193, looked up) CD70 antigen: MPEEGSGCSVRRRPYGCVLRAALVPLVAGLVICLVVCIQRFAQAQQQLPLESLGWDVAELQLNHTGPQQDPRLYWQGGPALGRSFLHGPELDKGQLRIHRDGIYMVHIQVTLAICSSTTASRHHPTTLAVGICSPASRSISLLRLSFHQGCTIASQRLTPLARGDTLCTNLTGTLLPSRNTDETFFGVQWVRP	3.16	−1.88
CPNE1 (protein, UniProt Q99829 1-537, looked up) Copine-1: MAHCVTLVQLSISCDHLIDKDIGSKSDPLCVLLQDVGGGSWAELGRTERVRNCSSPEFSKTLQLEYRFETVQKLRFGIYDIDNKTPELRDDDFLGGAECSLGQIVSSQVLTLPLMLKPGKPAGRGTITVSAQELKDNRVVTMEVEARNLDKKDFLGKSDPFLEFFRQGDGKWHLVYRSEVIKNNLNPTWKRFSVPVQHFCGGNPSTPIQVQCSDYDSDGSHDLIGTFHTSLAQLQAVPAEFECIHPEKQQKKKSYKNSGTIRVKICRVETEYSFLDYVMGGCQINFTVGVDFTGSNGDPSSPDSLHYLSPTGVNEYLMALWSVGSVVQDYDSDKLFPAFGFGAQVPPDWQVSHEFALNFNPSNPYCAGIQGIVDAYRQALPQVRLYGPTNFAPIINHVARFAAQAAHQGTASQYFMLLLLTDGAVTDVEATREAVVRASNLPMSVIIVGVGGADFEAMEQLDADGGPLHTRSGQAAARDIVQFVPYRRFQNAPREALAQTVLAEVPTQLVSYFRAQGWAPLKPLPPSAKDPAQAPQA	2.87	−4.36
ATS15 (protein, UniProt Q8TE58 213-950, looked up) A disintegrin and …: FVSIPRYVETLVVADESMVKFHGADLEHYLLTLLATAARLYRHPSILNPINIVVVKVLLLRDRDSGPKVTGNAALTLRNFCAWQKKLNKVSDKHPEYWDTAILFTRQDLCGATTCDTLGMADVGTMCDPKRSCSVIEDDGLPSAFTTAHELGHVFNMPHDNVKVCEEVFGKLRANHMMSPTLIQIDRANPWSACSAAIITDFLDSGHGDCLLDQPSKPISLPEDLPGASYTLSQQCELAFGVGSKPCPYMQYCTKLWCTGKAKGQMVCQTRHFPWADGTSCGEGKLCLKGACVERHNLNKHRVDGSWAKWDPYGPCSRTCGGGVQLARRQCTNPTPANGGKYCEGVRVKYRSCNLEPCPSSASGKSFREEQCEAFNGYNHSTNRLTLAVAWVPKYSGVSPRDKCKLICRANGTGYFYVLAPKVVDGTLCSPDSTSVCVQGKCIKAGCDGNLGSKKRFDKCGVCGGDNKSCKKVTGLFTKPMHGYNFVVAIPAGASSIDIRQRGYKGLIGDDNYLALKNSQGKYLLNGHFVVSAVERDLVVKGSLLRYSGTGTAVESLQASRPILEPLTVEVLSVGKMTPPRVRYSFYLPKEPREDKSSHPKDPRGPSVLHNSVLSLSNQVEQPDDRPPARWVAGSWGPCSASCGSGLQKRAVDCRGSAGQRTVPACDAAHRPVETQACGEPCPTWELSAWSPCSKSCGRGFQRRSLKCVGHGGRLLARDQCNLHRKPQELDFCVLRPC	4.2	−0.15
